Measurements reported in publication PMC10562424.
Results are given in words; binding and its absence hold for the method and conditions named. Binding seen in cells or lysates may run through a third protein. Some results given as binding are weak or reduced against the parent protein; the word gives no strength.

Chains of the proteins cited; added tags and fusions are not shown.
UniProt Q8N371: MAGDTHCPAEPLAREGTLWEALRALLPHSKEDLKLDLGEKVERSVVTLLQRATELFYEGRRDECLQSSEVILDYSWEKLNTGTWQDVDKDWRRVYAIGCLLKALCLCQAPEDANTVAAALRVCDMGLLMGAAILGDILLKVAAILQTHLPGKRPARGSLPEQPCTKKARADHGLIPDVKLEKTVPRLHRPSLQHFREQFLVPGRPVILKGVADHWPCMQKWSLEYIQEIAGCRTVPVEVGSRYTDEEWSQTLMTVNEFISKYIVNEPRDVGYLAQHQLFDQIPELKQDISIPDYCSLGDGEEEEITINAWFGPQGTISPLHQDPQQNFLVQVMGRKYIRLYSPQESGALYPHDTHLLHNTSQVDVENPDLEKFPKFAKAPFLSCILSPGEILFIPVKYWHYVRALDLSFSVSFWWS

Columns and labels:
[1] = molecular target: JMJD5 expressed in 293T cells (co-IP with HUWE1) (human) (UniProt Q8N371); assay: co-IP; 293T cells; anti-Flag immunoprecipitation, coprecipitated proteins detected by Western blot
[2] = molecular target: EGFR expressed in 293T cells (co-IP with HUWE1) (human) (UniProt P00533); assay: as above

Row | binding [1] | binding [2] | Substance
1 | binds | binds | Full-length HUWE1 in 293T cells (from UniProt Q7Z6Z7 1-4374) (enzyme)
2 | binds | binds | HUWE1 C-terminus (3551-4370 truncate containing HECT domain) (from UniProt Q7Z6Z7 3551-4370) (domain or fragment)
